Patent publication US7119111B2, “2-oxo-1,3,4-trihydroquinazolinyl derivatives and methods of use” (Amgen, Inc., priority 2002, dated 2006)
Some results were stated once for a whole list of compounds, not compound by compound.

Protein sequences, listed by entry. Tags and fused reporters are not part of them.
UniProt Q00535, whole entry: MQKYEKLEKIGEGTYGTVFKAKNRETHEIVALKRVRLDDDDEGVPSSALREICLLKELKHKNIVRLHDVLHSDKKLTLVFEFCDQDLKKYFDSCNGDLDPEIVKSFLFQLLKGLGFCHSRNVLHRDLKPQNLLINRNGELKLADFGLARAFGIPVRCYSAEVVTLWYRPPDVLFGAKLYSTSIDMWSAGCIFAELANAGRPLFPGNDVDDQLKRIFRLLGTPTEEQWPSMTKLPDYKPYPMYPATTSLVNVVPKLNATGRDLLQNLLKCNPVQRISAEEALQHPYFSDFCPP

Tests used:
cyclin E2/CDK2 = target: T1, cyclin E2/CDK2 (Homo sapiens, UniProt P24941); test: CDK2 Kinase Assay; format: biochemical; settings: 1 nM His-tagged cyclin 2/CDK2, 25 μM ATP, Histone-H1
T1 construct: made in house; host or cells: Hi5 insect cells (baculovirus, pFastBacDual)

p25/CDK5 = target: T2, p25/CDK5 (Homo sapiens, UniProt Q00535); test: CDK5 Kinase Assay; format: biochemical; settings: 1 nM His-tagged p25/CDK5, 25 μM ATP, Histone-H1
T2 construct: made in house; host or cells: Hi5 insect cells (baculovirus, Bac-to-Bac; co-infection)

Structure (SMILES)	IC50 (cyclin E2/CDK2)	IC50 (p25/CDK5)
O=C1Nc2ccccc2CN1c1csc(-c2ccncc2)n1 [Example 1, 3-(2-(4-Pyridyl)-1,3-thiazol-4-yl)-1,3,4-trihydroquinazolin-2-one]	< 1000 nM	
COC(=O)c1cccc2c1CN(c1csc(-c3ccncc3)n1)C(=O)N2 [Example 2, Methyl 2-oxo-3-(2-(4-pyridyl)(1,3-thiazol-4-yl))-1,3,4-trihydroquinazoline-5-carboxylate]	< 1000 nM	< 1000 nM
CCN(CC)C(=O)c1cccc2c1CN(c1csc(-c3ccncc3)n1)C(=O)N2 [Example 4, N,N-Diethyl[2-oxo-3-(2-(4-pyridyl)(1,3-thiazol-4-yl))(1,3,4-trihydroquinazolin-5-yl)]carboxamide]	< 1000 nM	
COc1cccc2c1CN(c1csc(-c3ccncc3)n1)C(=O)N2 [Example 5, 5-Methoxy-3-(2-(4-pyridyl)(1,3-thiazol-4-yl))-1,3,4-trihydroquinazolin-2-one]	< 1000 nM	< 1000 nM
O=C1Nc2cccc(Br)c2CN1c1csc(-c2ccncc2)n1 [Example 6, 5-Bromo-3-(2-(4-pyridyl)(1,3-thiazol-4-yl))-1,3,4-trihydroquinazolin-2-one]	< 1000 nM	< 1000 nM
Cc1ccc2c(c1)CN(c1csc(-c3ccncc3)n1)C(=O)N2 [Example 7, 6-Methyl-3-(2-(4-pyridyl)(1,3-thiazol-4-yl))-1,3,4-trihydroquinazolin-2-one]	< 1000 nM	< 1000 nM
Cc1cccc2c1CN(c1csc(-c3ccncc3)n1)C(=O)N2 [Example 8, 5-Methyl-3-(2-(4-pyridyl)(1,3-thiazol-4-yl))-1,3,4-trihydroquinazolin-2-one]	< 1000 nM	< 1000 nM
O=C1Nc2cc(F)ccc2CN1c1csc(-c2ccncc2)n1 [Example 9, 7-Fluoro-3-(2-(4-pyridyl)(1,3-thiazol-4-yl))-1,3,4-trihydroquinazolin-2-one]	< 1000 nM	< 1000 nM
O=C1Nc2ccc(F)cc2CN1c1csc(-c2ccncc2)n1 [Example 10, 6-Fluoro-3-(2-(4-pyridyl)(1,3-thiazol-4-yl))-1,3,4-trihydroquinazolin-2-one]	< 1000 nM	< 1000 nM
O=C1Nc2cccc(Cl)c2CN1c1csc(-c2ccncc2)n1 [Example 11, 5-Chloro-3-(2-(4-pyridyl)(1,3-thiazol-4-yl))-1,3,4-trihydroquinazolin-2-one]	< 1000 nM	< 1000 nM
O=C1Nc2cc(-c3ccccc3)ccc2CN1c1csc(-c2ccncc2)n1 [Example 12, 7-Phenyl-3-(2-(4-pyridyl)(1,3-thiazol-4-yl))-1,3,4-trihydroquinazolin-2-one]	< 1000 nM	< 1000 nM
O=C1Nc2cccc(F)c2CN1c1csc(-c2ccncc2)n1 [Example 13, 5-Fluoro-3-(2-(4-pyridyl)(1,3-thiazol-4-yl))-1,3,4-trihydroquinazolin-2-one]	< 1000 nM	< 1000 nM
O=C1Nc2cccc(CN3CCOCC3)c2CN1c1csc(-c2ccncc2)n1 [Example 14, 5-(Morpholin-4-ylmethyl)-3-(2-(4-pyridyl)(1,3-thiazol-4-yl))-1,3,4-trihydroquinazolin-2-one]	< 1000 nM	< 1000 nM
O=C1Nc2cccc(CN3CCCCC3)c2CN1c1csc(-c2ccncc2)n1 [Example 15, 5-(Piperidylmethyl)-3-(2-(4-pyridyl)(1,3-thiazol-4-yl))-1,3,4-trihydroquinazolin-2-one]	< 1000 nM	< 1000 nM
O=C1Nc2ccccc2CN1c1nc(-c2ccncc2)cs1 [Example 16, 3-(4-(4-Pyridyl)-1,3-thiazol-2-yl)-1,3,4-trihydroquinazolin-2-one]	< 1000 nM	< 1000 nM
O=C1Nc2ccccc2CN1c1nc(-c2cccnc2)cs1 [Example 18, 3-(4-(3-Pyridyl)-1,3-thiazol-2-yl)-1,3,4-trihydroquinazolin-2-one]		< 1000 nM
O=C1Nc2cc3c(cc2CN1c1csc(-c2ccncc2)n1)OCO3 [Example 20, 7-(2-(4-Pyridyl)-1,3-thiazol-4-yl)-5,7,8-trihydro-2H-1,3-dioxolano[4,5-g]quinazolin-6-one]	< 1000 nM	< 1000 nM
COC(=O)c1ccc2c(c1)NC(=O)N(c1csc(-c3ccncc3)n1)C2 [Example 21, Methyl 2-oxo-3-(2-(4-pyridyl)(1,3-thiazol-4-yl))-1,3,4-trihydroquinazoline-7-carboxylate]		< 1000 nM
O=C1Nc2c(ccc3c2OCO3)CN1c1csc(-c2ccncc2)n1 [Example 24, 7-(2-(4-Pyridyl)-1,3-thiazol-4-yl)-6,7,9-trihydro-2H-1,3-dioxoleno[4,5-h]quinazolin-8-one]	< 1000 nM	< 1000 nM
O=C1Nc2cc(Br)ccc2CN1c1csc(-c2ccncc2)n1 [Example 26, 7-Bromo-3-(2-(4-pyridyl)(1,3-thiazol-4-yl))-1,3,4-trihydroquinazolin-2-one]	< 1000 nM	< 1000 nM

Structure (SMILES)	IC50 (cyclin E2/CDK2)	IC50 (p25/CDK5)
O=C1Nc2cc(CN3CCOCC3)ccc2CN1c1csc(-c2ccncc2)n1 [Example 27, 7-(Morpholin-4-ylmethyl)-3-(2-(4-pyridyl)(1,3-thiazol-4-yl))-1,3,4-trihydroquinazolin-2-one]	< 1000 nM	< 1000 nM
Nc1ccc2c(c1)NC(=O)N(c1csc(-c3ccncc3)n1)C2 [Example 28, 7-Amino-3-(2-(4-pyridyl)(1,3-thiazol-4-yl))-1,3,4-trihydroquinazolin-2-one]	< 1000 nM	< 1000 nM
O=C1Nc2cccc(CN3CCCCCC3)c2CN1c1csc(-c2ccncc2)n1 [Example 29, 5-(Azaperhydroepinylmethyl)-3-(2-(4-pyridyl)(1,3-thiazol-4-yl))-1,3,4-trihydroquinazolin-2-one]	< 1000 nM	< 1000 nM
COc1cccc(-c2ccc3c(c2)NC(=O)N(c2csc(-c4ccncc4)n2)C3)c1 [Example 30, 7-(3-Methoxyphenyl)-3-(2-(4-pyridyl)(1,3-thiazol-4-yl))-1,3,4-trihydroquinazolin-2-one]	< 1000 nM	< 1000 nM
O=C1Nc2cc(-c3cccc(O)c3)ccc2CN1c1csc(-c2ccncc2)n1 [Example 31, 7-(3-Hydroxyphenyl)-3-(2-(4-pyridyl) (1,3-thiazol-4-yl))-1,3,4-trihydroquinazolin-2-one]	< 1000 nM	< 1000 nM
O=C1Nc2cc(-c3cccc(OCCN4CCCCC4)c3)ccc2CN1c1csc(-c2ccncc2)n1 [Example 32, 7-[3-(2-Piperidylethoxy)phenyl]-3-(2-(4-pyridyl)(1,3-thiazol-4-yl))-1,3,4-trihydroquinazolin-2-one]	< 1000 nM	< 1000 nM
CCc1cc(-c2nc(N3Cc4ccccc4NC3=O)cs2)ccn1 [Example 35, 3-[2-(2-Ethyl-4-pyridyl)-1,3-thiazol-4-yl]-1,3,4-trihydroquinazolin-2-one]		< 1000 nM
O=C1Nc2ccc(N3CCCCC3)cc2CN1c1nc(-c2ccncc2)cs1 [Example 36, 6-Piperidyl-3-(4-(4-pyridyl)(1,3-thiazol-2-yl))-1,3,4-trihydroquinazolin-2-one]	< 1000 nM	
CN1CCN(c2ccc3c(c2)CN(c2nc(-c4ccncc4)cs2)C(=O)N3)CC1 [Example 38, 6-(4-Methylpiperazinyl)-3-(4-(4-pyridyl)(1,3-thiazol-2-yl))-1,3,4-trihydroquinazolin-2-one]		< 1000 nM
O=C1Nc2ccccc2CN1c1nc(-c2ccncc2)ns1 [Example 46, 3-(3-(4-Pyridyl)-1,2,4-thiadiazol-5-yl)-1,3,4-trihydroquinazolin-2-one]		< 1000 nM
COc1cc2c(cc1OC)NC(=O)N(c1nc(-c3ccncc3)ns1)C2 [Example 50, 6,7-Dimethoxy-3-(3-(4-pyridyl)(1,2,4-thiadiazol-5-yl))-1,3,4-trihydroquinazolin-2-one]		< 1000 nM
O=C1Nc2cccc(OCCN3CCOCC3)c2CN1c1nc(-c2ccncc2)ns1 [Example 51, 5-(2-Morpholin-4-ylethoxy)-3-(3-(4-pyridyl)(1,2,4-thiadiazol-5-yl))-1,3,4-trihydroquinazolin-2-one]	< 1000 nM	
O=C1Nc2cc(C(F)(F)F)ccc2CN1c1nc(-c2ccncc2)ns1 [Example 52, 3-(3-(4-Pyridyl)(1,2,4-thiadiazol-5-yl))-7-(trifluoromethyl)-1,3,4-trihydroquinazolin-2-one]		< 1000 nM
O=C1Nc2cccc(N3CCOCC3)c2CN1c1nc(-c2ccncc2)ns1 [Example 53, 5-Morpholin-4-yl-3-(3-(4-pyridyl)(1,2,4-thiadiazol-5-yl))-1,3,4-trihydroquinazolin-2-one]		< 1000 nM
CN1CCC[C@H]1COc1ccc2c(c1)CN(c1nc(-c3ccncc3)ns1)C(=O)N2 [Example 54, 6-[((2S)-1-Methylpyrrolidin-2-yl)methoxy]-3-(3-(4-pyridyl)-(1,2,4-thiadiazol-5-yl))-1,3,4-trihydroquinazolin-2-one]		< 1000 nM
O=C1Nc2cc(F)c(N3CCCCC3)cc2CN1c1csc(-c2ccncc2)n1 [Example 56, 7-Fluoro-6-piperidyl-3-(2-(4-pyridyl)(1,3-thiazol-4-yl))-1,3,4-trihydroquinazolin-2-one]	< 1000 nM	
CN1CCN(c2ccc3c(c2)CN(c2csc(-c4ccncc4)n2)C(=O)N3)CC1 [Example 59, 6-(4-Methylpiperazinyl)-3-(2-(4-pyridyl)(1,3-thiazol-4-yl))-1,3,4-trihydro-quinazolin-2-one]		< 1000 nM
COC[C@H]1CCCN1Cc1ccc2c(c1)NC(=O)N(c1csc(-c3ccncc3)n1)C2 [Example 61, 7-{[(2R)-2-(Methoxymethyl)pyrrolidinyl]methyl}-3-(2-(4-pyridyl)(1,3-thiazol-4-yl))-1,3,4-trihydroquinazolin-2-one]		< 1000 nM
CN1CCN(c2cccc3c2CN(c2csc(-c4ccncc4)n2)C(=O)N3)CC1 [Example 95, 5-(Methylpiperazin-1-yl)-3-(2-(4-pyridyl)(1,3-thiazol-4-yl))-1,3,4-trihydroquinazolin-2-one]	< 1000 nM	
